Where a name gives a salt, the structure may show the parent alone. The list shows a part of the results. Hit calls seldom repeat between salt and free forms of one compound.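 In K562 cells expressing nanoluciferase-fused kinases, luminescence was recorded at 4 h intervals between 2 and 18 h, normalized as percent of control with DMSO at 100% and a positive control at 0%. A significant (2 sigma) signal drop marks a time point as decreased. The authors' rule for a hit is not shown and takes in more than the number of time points.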
How the values were obtained:
Assay in all cases: kinase-Nluc reporter destabilization hit call (1 = scored as downregulated) (binary); higher = compound decreases kinase abundance
Settings in all cases: K562, 2-18 h
BRAF_V600E = system: BRAF_V600E
BTK = BTK (UniProt Q06187)
CAMK2A = CAMK2A (UniProt Q9UQM7)
CAMK2G = CAMK2G (UniProt Q13555)
CDK10 = CDK10 (UniProt Q15131)
CDK2 = CDK2 (UniProt P24941)
CDK3 = CDK3 (UniProt Q00526)
CDK4 = CDK4 (UniProt P11802)
CDK5 = CDK5 (UniProt Q00535)
CDK6 = CDK6 (UniProt Q00534)
CDK7 = CDK7 (UniProt P50613)
CDK9 = CDK9 (UniProt P50750)
CHEK2 = CHEK2 (UniProt O96017)
CSF1R = CSF1R (UniProt P07333)
CSK = CSK (UniProt P41240)
CSNK1A1 = CSNK1A1 (UniProt P48729)
CSNK1D = CSNK1D (UniProt P48730)
DDR1 = DDR1 (UniProt Q08345)
DYRK1B = DYRK1B (UniProt Q9Y463)
DYRK2 = DYRK2 (UniProt Q92630)

Protein sequences, listed by entry. Tags and fused reporters are not part of them. Lines headed by an entry give the natural chain unless they say otherwise; changes in a name come on top.
UniProt Q06187: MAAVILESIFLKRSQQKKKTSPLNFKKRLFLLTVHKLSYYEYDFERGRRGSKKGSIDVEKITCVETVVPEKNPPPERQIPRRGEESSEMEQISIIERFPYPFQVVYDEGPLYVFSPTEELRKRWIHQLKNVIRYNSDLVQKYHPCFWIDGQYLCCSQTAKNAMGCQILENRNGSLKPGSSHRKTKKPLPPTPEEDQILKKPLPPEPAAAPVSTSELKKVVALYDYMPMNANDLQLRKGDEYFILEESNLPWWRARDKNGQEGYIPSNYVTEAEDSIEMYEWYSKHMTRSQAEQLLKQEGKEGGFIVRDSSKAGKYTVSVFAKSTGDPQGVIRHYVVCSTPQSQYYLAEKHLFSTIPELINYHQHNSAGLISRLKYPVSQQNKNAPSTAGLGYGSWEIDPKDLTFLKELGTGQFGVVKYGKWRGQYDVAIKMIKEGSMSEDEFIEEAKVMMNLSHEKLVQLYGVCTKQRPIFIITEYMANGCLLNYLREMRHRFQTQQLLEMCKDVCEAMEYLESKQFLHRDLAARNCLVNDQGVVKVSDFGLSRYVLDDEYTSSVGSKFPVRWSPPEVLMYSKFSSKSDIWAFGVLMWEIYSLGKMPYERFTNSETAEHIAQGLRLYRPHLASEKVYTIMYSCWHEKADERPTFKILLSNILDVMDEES
UniProt Q9UQM7, whole entry: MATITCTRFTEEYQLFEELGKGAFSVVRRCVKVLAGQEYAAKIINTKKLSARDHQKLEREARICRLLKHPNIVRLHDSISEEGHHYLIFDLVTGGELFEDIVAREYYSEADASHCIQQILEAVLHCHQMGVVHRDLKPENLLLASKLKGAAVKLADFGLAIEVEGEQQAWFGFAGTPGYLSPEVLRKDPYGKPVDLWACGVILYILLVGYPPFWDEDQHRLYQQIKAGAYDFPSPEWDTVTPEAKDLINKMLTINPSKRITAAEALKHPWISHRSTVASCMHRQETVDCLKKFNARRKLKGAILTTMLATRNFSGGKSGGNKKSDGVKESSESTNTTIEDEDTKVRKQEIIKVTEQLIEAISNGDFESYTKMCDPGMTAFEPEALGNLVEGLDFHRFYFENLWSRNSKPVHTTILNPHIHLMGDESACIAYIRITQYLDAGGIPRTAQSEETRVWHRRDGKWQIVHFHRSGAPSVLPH
UniProt Q00526: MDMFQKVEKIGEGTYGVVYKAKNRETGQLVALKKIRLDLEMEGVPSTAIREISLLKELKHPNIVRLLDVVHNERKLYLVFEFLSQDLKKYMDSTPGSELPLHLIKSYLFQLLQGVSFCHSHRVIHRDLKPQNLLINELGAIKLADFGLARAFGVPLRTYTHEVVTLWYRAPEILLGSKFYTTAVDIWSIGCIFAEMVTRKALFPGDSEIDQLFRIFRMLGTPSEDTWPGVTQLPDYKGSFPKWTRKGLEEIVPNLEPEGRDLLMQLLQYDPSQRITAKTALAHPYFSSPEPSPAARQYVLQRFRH
UniProt P11802: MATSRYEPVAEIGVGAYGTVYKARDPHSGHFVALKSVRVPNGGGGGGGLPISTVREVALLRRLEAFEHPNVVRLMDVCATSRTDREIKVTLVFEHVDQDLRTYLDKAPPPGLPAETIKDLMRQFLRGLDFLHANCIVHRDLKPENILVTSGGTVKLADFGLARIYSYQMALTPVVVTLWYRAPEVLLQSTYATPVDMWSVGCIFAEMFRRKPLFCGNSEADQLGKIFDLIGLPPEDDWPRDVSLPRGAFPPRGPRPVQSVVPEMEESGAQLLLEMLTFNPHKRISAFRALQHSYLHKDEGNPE
UniProt Q00535, whole entry, looked up: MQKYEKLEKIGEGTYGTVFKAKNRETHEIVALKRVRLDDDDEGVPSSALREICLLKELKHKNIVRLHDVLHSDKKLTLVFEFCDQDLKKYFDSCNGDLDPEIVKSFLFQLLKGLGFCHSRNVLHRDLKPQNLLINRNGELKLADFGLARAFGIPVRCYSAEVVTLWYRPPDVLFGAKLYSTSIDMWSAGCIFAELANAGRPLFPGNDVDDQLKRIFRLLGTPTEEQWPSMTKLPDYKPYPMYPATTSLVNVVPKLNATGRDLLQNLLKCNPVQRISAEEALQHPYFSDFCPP
UniProt Q00534, whole entry: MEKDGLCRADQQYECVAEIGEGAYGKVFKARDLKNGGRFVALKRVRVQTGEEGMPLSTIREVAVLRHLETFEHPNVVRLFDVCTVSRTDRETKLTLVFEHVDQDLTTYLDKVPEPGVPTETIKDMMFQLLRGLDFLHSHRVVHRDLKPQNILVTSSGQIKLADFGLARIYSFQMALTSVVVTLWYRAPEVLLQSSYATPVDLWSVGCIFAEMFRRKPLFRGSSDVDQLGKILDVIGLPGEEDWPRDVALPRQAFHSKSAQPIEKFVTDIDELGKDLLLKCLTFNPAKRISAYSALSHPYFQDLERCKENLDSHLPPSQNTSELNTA
UniProt P50613: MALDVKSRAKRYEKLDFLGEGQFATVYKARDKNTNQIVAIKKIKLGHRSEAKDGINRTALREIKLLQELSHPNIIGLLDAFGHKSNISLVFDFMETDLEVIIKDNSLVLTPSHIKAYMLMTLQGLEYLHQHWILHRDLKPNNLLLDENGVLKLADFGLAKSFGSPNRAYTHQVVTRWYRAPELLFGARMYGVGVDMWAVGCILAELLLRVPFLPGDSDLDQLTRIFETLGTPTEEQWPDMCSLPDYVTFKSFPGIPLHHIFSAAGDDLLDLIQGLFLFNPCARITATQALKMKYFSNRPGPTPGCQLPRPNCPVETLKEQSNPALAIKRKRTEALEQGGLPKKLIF
UniProt P50750, whole entry: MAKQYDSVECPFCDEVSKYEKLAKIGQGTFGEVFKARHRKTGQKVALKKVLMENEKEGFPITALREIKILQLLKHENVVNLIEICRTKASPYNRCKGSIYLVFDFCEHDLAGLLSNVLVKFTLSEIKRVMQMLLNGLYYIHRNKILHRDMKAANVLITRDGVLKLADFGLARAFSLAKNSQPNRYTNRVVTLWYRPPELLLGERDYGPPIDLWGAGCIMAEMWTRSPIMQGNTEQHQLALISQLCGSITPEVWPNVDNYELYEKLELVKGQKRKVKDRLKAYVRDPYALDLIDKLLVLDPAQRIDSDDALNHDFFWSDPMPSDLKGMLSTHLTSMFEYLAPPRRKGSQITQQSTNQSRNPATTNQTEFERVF
UniProt P07333, whole entry: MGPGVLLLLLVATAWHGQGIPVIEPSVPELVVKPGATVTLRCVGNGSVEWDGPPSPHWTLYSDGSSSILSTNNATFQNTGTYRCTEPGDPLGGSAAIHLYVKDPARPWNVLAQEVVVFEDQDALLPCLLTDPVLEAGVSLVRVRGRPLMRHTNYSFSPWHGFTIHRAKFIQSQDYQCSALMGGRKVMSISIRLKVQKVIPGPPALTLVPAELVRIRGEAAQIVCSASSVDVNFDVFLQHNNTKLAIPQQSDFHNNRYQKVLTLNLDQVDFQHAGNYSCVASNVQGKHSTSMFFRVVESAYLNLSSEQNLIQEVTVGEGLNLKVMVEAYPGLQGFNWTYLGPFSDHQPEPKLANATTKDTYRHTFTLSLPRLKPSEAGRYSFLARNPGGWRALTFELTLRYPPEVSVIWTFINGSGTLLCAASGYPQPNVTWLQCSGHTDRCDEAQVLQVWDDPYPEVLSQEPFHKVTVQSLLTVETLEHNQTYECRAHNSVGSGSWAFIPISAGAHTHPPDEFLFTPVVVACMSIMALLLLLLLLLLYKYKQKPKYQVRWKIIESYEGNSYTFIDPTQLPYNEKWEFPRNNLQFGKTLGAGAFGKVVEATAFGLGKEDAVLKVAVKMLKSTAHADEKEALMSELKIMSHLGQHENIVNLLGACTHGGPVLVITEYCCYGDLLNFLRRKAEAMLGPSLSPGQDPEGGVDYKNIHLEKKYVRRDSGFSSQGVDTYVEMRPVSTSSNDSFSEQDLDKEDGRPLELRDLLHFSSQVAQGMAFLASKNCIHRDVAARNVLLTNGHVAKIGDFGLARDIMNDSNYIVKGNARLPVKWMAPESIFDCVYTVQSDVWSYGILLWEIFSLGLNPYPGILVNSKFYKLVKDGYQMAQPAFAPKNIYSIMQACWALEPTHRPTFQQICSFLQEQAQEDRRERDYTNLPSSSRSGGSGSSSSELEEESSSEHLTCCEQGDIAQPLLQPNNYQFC
UniProt P41240: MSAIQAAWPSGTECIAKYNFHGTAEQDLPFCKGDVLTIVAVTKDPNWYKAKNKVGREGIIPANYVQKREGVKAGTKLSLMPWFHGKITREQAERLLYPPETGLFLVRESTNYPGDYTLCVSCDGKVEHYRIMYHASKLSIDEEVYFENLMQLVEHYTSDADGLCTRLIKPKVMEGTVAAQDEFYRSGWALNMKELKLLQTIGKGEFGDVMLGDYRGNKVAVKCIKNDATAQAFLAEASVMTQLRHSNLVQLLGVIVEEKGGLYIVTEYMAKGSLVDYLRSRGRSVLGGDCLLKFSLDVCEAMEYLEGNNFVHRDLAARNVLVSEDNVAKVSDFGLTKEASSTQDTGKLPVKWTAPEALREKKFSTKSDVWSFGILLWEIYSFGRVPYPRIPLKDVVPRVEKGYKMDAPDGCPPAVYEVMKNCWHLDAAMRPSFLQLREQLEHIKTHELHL
UniProt P48729: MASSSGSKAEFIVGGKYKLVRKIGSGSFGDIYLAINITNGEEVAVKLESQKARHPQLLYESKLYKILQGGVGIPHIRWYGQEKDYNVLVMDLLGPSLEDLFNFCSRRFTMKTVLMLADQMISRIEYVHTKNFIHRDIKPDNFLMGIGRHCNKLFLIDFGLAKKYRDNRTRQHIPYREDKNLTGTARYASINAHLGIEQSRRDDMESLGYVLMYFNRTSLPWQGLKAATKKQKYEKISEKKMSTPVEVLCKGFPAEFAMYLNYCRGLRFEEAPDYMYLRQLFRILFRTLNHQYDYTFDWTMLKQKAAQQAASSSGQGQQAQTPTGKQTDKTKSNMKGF
UniProt Q08345: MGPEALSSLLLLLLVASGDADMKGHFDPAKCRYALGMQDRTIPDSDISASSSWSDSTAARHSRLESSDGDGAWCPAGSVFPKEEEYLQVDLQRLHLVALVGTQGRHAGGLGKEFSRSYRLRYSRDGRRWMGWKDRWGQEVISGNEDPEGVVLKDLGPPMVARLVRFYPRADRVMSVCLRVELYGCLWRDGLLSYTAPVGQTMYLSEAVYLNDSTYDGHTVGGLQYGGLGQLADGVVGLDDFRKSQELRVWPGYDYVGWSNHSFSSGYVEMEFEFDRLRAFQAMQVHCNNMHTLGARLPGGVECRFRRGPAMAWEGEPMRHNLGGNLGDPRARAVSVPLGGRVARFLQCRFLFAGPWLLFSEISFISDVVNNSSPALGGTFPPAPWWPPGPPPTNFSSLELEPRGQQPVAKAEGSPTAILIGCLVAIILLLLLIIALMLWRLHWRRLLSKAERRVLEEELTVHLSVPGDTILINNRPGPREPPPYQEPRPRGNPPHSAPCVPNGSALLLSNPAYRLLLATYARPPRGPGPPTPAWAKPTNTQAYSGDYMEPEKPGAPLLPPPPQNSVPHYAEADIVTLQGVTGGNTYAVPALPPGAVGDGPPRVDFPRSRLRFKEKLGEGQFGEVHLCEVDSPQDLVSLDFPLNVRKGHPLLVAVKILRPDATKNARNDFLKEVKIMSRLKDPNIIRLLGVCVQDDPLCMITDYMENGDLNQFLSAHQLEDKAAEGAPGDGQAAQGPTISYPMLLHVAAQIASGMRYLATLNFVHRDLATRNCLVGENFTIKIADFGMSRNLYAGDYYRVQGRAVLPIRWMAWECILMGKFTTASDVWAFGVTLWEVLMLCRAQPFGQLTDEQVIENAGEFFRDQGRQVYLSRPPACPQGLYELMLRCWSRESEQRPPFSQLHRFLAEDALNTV
UniProt Q9Y463, whole entry, looked up: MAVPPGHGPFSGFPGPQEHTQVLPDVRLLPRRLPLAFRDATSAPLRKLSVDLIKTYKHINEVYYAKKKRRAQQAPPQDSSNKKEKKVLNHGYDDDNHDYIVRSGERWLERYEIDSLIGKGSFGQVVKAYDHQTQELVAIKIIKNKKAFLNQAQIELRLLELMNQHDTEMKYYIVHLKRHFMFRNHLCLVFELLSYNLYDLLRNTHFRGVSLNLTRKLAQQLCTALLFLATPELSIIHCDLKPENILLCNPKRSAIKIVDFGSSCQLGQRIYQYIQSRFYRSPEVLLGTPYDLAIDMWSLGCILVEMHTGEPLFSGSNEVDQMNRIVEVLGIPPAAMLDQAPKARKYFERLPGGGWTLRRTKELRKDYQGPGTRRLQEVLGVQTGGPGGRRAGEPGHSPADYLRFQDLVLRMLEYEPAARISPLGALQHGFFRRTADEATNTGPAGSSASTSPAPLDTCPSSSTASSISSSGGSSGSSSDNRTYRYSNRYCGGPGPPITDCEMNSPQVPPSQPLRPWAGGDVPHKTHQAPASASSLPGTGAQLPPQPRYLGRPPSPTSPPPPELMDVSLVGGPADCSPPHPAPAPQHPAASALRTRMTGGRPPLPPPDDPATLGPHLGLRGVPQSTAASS

Structure (SMILES) | kinase-Nluc reporter destabilization hit call (BRAF_V600E; 10 µM) | kinase-Nluc reporter destabilization hit call (BTK; 10 µM) | kinase-Nluc reporter destabilization hit call (CAMK2A; 10 µM) | kinase-Nluc reporter destabilization hit call (CAMK2G; 10 µM) | kinase-Nluc reporter destabilization hit call (CDK10; 10 µM) | kinase-Nluc reporter destabilization hit call (CDK2; 10 µM) | kinase-Nluc reporter destabilization hit call (CDK3; 10 µM) | kinase-Nluc reporter destabilization hit call (CDK4; 10 µM) | kinase-Nluc reporter destabilization hit call (CDK5; 10 µM) | kinase-Nluc reporter destabilization hit call (CDK6; 10 µM) | kinase-Nluc reporter destabilization hit call (CDK7; 10 µM) | kinase-Nluc reporter destabilization hit call (CDK9; 10 µM) | kinase-Nluc reporter destabilization hit call (CHEK2; 10 µM) | kinase-Nluc reporter destabilization hit call (CSF1R; 10 µM) | kinase-Nluc reporter destabilization hit call (CSK; 10 µM) | kinase-Nluc reporter destabilization hit call (CSNK1A1; 10 µM) | kinase-Nluc reporter destabilization hit call (CSNK1D; 10 µM) | kinase-Nluc reporter destabilization hit call (DDR1; 10 µM) | kinase-Nluc reporter destabilization hit call (DYRK1B; 10 µM) | kinase-Nluc reporter destabilization hit call (DYRK2; 10 µM) | kinase-Nluc reporter destabilization hit call (BRAF_V600E; 2.5 µM) | kinase-Nluc reporter destabilization hit call (BTK; 2.5 µM) | kinase-Nluc reporter destabilization hit call (CAMK2A; 2.5 µM) | kinase-Nluc reporter destabilization hit call (CAMK2G; 2.5 µM) | kinase-Nluc reporter destabilization hit call (CDK10; 2.5 µM) | kinase-Nluc reporter destabilization hit call (CDK2; 2.5 µM) | kinase-Nluc reporter destabilization hit call (CDK3; 2.5 µM) | kinase-Nluc reporter destabilization hit call (CDK4; 2.5 µM) | kinase-Nluc reporter destabilization hit call (CDK5; 2.5 µM) | kinase-Nluc reporter destabilization hit call (CDK6; 2.5 µM) | kinase-Nluc reporter destabilization hit call (CDK7; 2.5 µM) | kinase-Nluc reporter destabilization hit call (CDK9; 2.5 µM) | kinase-Nluc reporter destabilization hit call (CHEK2; 2.5 µM) | kinase-Nluc reporter destabilization hit call (CSF1R; 2.5 µM) | kinase-Nluc reporter destabilization hit call (CSK; 2.5 µM) | kinase-Nluc reporter destabilization hit call (CSNK1A1; 2.5 µM) | kinase-Nluc reporter destabilization hit call (CSNK1D; 2.5 µM) | kinase-Nluc reporter destabilization hit call (DDR1; 2.5 µM) | kinase-Nluc reporter destabilization hit call (DYRK1B; 2.5 µM) | kinase-Nluc reporter destabilization hit call (DYRK2; 2.5 µM)
C#Cc1cccc(Nc2ncnc3cc(OCCOC)c(OCCO)cc23)c1 [Desmethyl Erlotinib] | inactive: 0 | inactive: 0 | inactive: 0 | inactive: 0 | inactive: 0 | inactive: 0 | inactive: 0 | inactive: 0 | inactive: 0 | inactive: 0 | inactive: 0 | inactive: 0 | inactive: 0 | inactive: 0 | inactive: 0 | inactive: 0 | inactive: 0 | inactive: 0 | inactive: 0 | inactive: 0 |  |  |  |  |  |  |  |  |  |  |  |  |  |  |  |  |  |  |  | 
N#CCC1(n2cc(-c3ncnc4[nH]ccc34)cn2)CN(C2CCN(C(=O)c3ccnc(C(F)(F)F)c3F)CC2)C1 [Itacitinib adipate] | inactive: 0 | inactive: 0 | inactive: 0 | inactive: 0 | inactive: 0 | inactive: 0 | inactive: 0 | inactive: 0 | inactive: 0 | inactive: 0 | inactive: 0 | inactive: 0 | inactive: 0 | inactive: 0 | inactive: 0 | inactive: 0 | inactive: 0 | inactive: 0 | inactive: 0 | inactive: 0 |  |  |  |  |  |  |  |  |  |  |  |  |  |  |  |  |  |  |  | 
C=CC(=O)Nc1cc(Nc2ncc(C(=O)OC(C)C)c(-c3cn(C)c4ccccc34)n2)c(OC)cc1N(C)CCN(C)C [Mobocertinib (succinate)] | inactive: 0 | inactive: 0 | inactive: 0 | inactive: 0 | inactive: 0 | inactive: 0 | inactive: 0 | inactive: 0 | inactive: 0 | inactive: 0 | inactive: 0 | inactive: 0 | inactive: 0 | inactive: 0 | inactive: 0 | inactive: 0 | inactive: 0 | inactive: 0 | inactive: 0 | inactive: 0 |  |  |  |  |  |  |  |  |  |  |  |  |  |  |  |  |  |  |  | 
Nc1ncnc2c1c(-c1ccc(Oc3ccccc3)cc1)nn2[C@@H]1CCCNC1 |  |  |  |  |  |  |  |  |  |  |  |  |  |  |  |  |  |  |  |  | inactive: 0 | inactive: 0 | inactive: 0 | inactive: 0 | inactive: 0 | inactive: 0 | inactive: 0 | inactive: 0 | inactive: 0 | inactive: 0 | inactive: 0 | inactive: 0 | inactive: 0 | inactive: 0 | inactive: 0 | inactive: 0 | inactive: 0 | inactive: 0 | inactive: 0 | inactive: 0
Cc1cc(Nc2ncc(Cl)c(Nc3ccccc3S(=O)(=O)C(C)C)n2)c(OC(C)C)cc1C1CCNCC1 [Ceritinib dihydrochloride] |  |  |  |  |  |  |  |  |  |  |  |  |  |  |  |  |  |  |  |  | inactive: 0 | inactive: 0 | inactive: 0 | inactive: 0 | inactive: 0 | inactive: 0 | inactive: 0 | inactive: 0 | inactive: 0 | inactive: 0 | inactive: 0 | inactive: 0 | inactive: 0 | inactive: 0 | inactive: 0 | inactive: 0 | inactive: 0 | inactive: 0 | inactive: 0 | inactive: 0
Clc1ccc(C2(c3ccc(-c4cn[nH]c4)cc3)CCNCC2)cc1 | inactive: 0 | inactive: 0 | inactive: 0 | inactive: 0 | inactive: 0 | inactive: 0 | inactive: 0 | inactive: 0 | inactive: 0 | inactive: 0 | inactive: 0 | inactive: 0 | inactive: 0 | inactive: 0 | inactive: 0 | inactive: 0 | inactive: 0 | inactive: 0 | inactive: 0 | inactive: 0 |  |  |  |  |  |  |  |  |  |  |  |  |  |  |  |  |  |  |  | 
O=C1Nc2ccccc2/C1=C/c1ccccn1 [(E/Z)-GSK-3β inhibitor 1] | inactive: 0 | inactive: 0 | inactive: 0 | inactive: 0 | inactive: 0 | inactive: 0 | inactive: 0 | inactive: 0 | inactive: 0 | inactive: 0 | inactive: 0 | inactive: 0 | inactive: 0 | inactive: 0 | inactive: 0 | inactive: 0 | inactive: 0 | inactive: 0 | inactive: 0 | inactive: 0 |  |  |  |  |  |  |  |  |  |  |  |  |  |  |  |  |  |  |  | 
C=CC(=O)Nc1cc2c(Nc3ccc(F)c(Cl)c3)ncnc2cc1C#CC(C)(C)N1CCN(C)CC1 |  |  |  |  |  |  |  |  |  |  |  |  |  |  |  |  |  |  |  |  | inactive: 0 | inactive: 0 | inactive: 0 | inactive: 0 | inactive: 0 | inactive: 0 | inactive: 0 | inactive: 0 | inactive: 0 | inactive: 0 | inactive: 0 | inactive: 0 | inactive: 0 | inactive: 0 | inactive: 0 | inactive: 0 | inactive: 0 | active: 1 | inactive: 0 | active: 1
Cc1cccc(-c2[nH]c(CNc3ccccc3F)nc2-c2ccc3ncnn3c2)n1 [Vactosertib] |  |  |  |  |  |  |  |  |  |  |  |  |  |  |  |  |  |  |  |  | inactive: 0 | inactive: 0 | inactive: 0 | inactive: 0 | inactive: 0 | inactive: 0 | inactive: 0 | inactive: 0 | inactive: 0 | inactive: 0 | inactive: 0 | inactive: 0 | inactive: 0 | inactive: 0 | inactive: 0 | inactive: 0 | inactive: 0 | inactive: 0 | inactive: 0 | inactive: 0
COC(=O)[C@H](CC(C)C)NC(=O)c1ccc(NC[C@@H](N)CS)cc1-c1cccc2ccccc12 | inactive: 0 | inactive: 0 | inactive: 0 | inactive: 0 | inactive: 0 | inactive: 0 | inactive: 0 | inactive: 0 | inactive: 0 | inactive: 0 | inactive: 0 | inactive: 0 | inactive: 0 | inactive: 0 | inactive: 0 | inactive: 0 | inactive: 0 | inactive: 0 | inactive: 0 | inactive: 0 |  |  |  |  |  |  |  |  |  |  |  |  |  |  |  |  |  |  |  | 
COc1cc2c(Oc3ccc4[nH]c(C)cc4c3F)ncnc2cc1OCCCN1CCCC1 [Cediranib] |  |  |  |  |  |  |  |  |  |  |  |  |  |  |  |  |  |  |  |  | inactive: 0 | inactive: 0 | inactive: 0 | inactive: 0 | inactive: 0 | inactive: 0 | inactive: 0 | inactive: 0 | inactive: 0 | inactive: 0 | inactive: 0 | inactive: 0 | inactive: 0 | inactive: 0 | inactive: 0 | inactive: 0 | inactive: 0 | inactive: 0 | inactive: 0 | inactive: 0
CNc1ncc2cc(-c3ccc(-c4cccc(C)n4)cc3Cl)c(=O)n(C[C@H]3OC[C@H](N)CO3)c2n1 [G-5555 (hydrochloride)] | inactive: 0 | inactive: 0 | inactive: 0 | inactive: 0 | inactive: 0 | inactive: 0 | inactive: 0 | inactive: 0 | inactive: 0 | inactive: 0 | inactive: 0 | inactive: 0 | inactive: 0 | inactive: 0 | inactive: 0 | inactive: 0 | inactive: 0 | inactive: 0 | inactive: 0 | inactive: 0 |  |  |  |  |  |  |  |  |  |  |  |  |  |  |  |  |  |  |  | 
C=CC(=O)Nc1cc(Nc2ncc(C(=O)OC(C)C)c(-c3cn(C)c4ccccc34)n2)c(OC)cc1N(C)CCN(C)C [Mobocertinib] | inactive: 0 | inactive: 0 | inactive: 0 | inactive: 0 | inactive: 0 | inactive: 0 | inactive: 0 | inactive: 0 | inactive: 0 | inactive: 0 | inactive: 0 | inactive: 0 | inactive: 0 | inactive: 0 | inactive: 0 | inactive: 0 | inactive: 0 | inactive: 0 | inactive: 0 | inactive: 0 |  |  |  |  |  |  |  |  |  |  |  |  |  |  |  |  |  |  |  | 
COc1ncc(F)cc1CNc1ccc(Cc2c[nH]c3ncc(C)cc23)c(F)n1 [PLX5622 (hemifumarate)] | inactive: 0 | inactive: 0 | inactive: 0 | inactive: 0 | inactive: 0 | inactive: 0 | inactive: 0 | inactive: 0 | inactive: 0 | inactive: 0 | inactive: 0 | inactive: 0 | inactive: 0 | inactive: 0 | inactive: 0 | inactive: 0 | inactive: 0 | inactive: 0 | inactive: 0 | inactive: 0 |  |  |  |  |  |  |  |  |  |  |  |  |  |  |  |  |  |  |  | 
COc1ccc2c(c1)C(c1ccc(F)cc1)=C(CN1CCCC1)CO2 [AX-024 hydrochloride] | inactive: 0 | inactive: 0 | inactive: 0 | inactive: 0 | inactive: 0 | inactive: 0 | inactive: 0 | inactive: 0 | inactive: 0 | inactive: 0 | inactive: 0 | inactive: 0 | inactive: 0 | inactive: 0 | inactive: 0 | inactive: 0 | inactive: 0 | inactive: 0 | inactive: 0 | inactive: 0 |  |  |  |  |  |  |  |  |  |  |  |  |  |  |  |  |  |  |  | 
C[C@H](CCC(=O)NCCS(=O)(=O)O)[C@H]1CC[C@H]2[C@@H]3[C@@H](O)C[C@@H]4C[C@H](O)CC[C@]4(C)[C@H]3CC[C@]12C [Tauroursodeoxycholate (sodium)] | inactive: 0 | inactive: 0 | inactive: 0 | inactive: 0 | inactive: 0 | inactive: 0 | inactive: 0 | inactive: 0 | inactive: 0 | inactive: 0 | inactive: 0 | inactive: 0 | inactive: 0 | inactive: 0 | inactive: 0 | inactive: 0 | inactive: 0 | inactive: 0 | inactive: 0 | inactive: 0 |  |  |  |  |  |  |  |  |  |  |  |  |  |  |  |  |  |  |  | 
Nc1ncnc2c1c(-c1ccc(Oc3ccccc3)cc1)nn2[C@@H]1CCCNC1 [IBT6A (hydrochloride)] |  |  |  |  |  |  |  |  |  |  |  |  |  |  |  |  |  |  |  |  | inactive: 0 | inactive: 0 | inactive: 0 | inactive: 0 | inactive: 0 | inactive: 0 | inactive: 0 | inactive: 0 | inactive: 0 | inactive: 0 | inactive: 0 | inactive: 0 | inactive: 0 | inactive: 0 | inactive: 0 | inactive: 0 | inactive: 0 | inactive: 0 | inactive: 0 | inactive: 0

Copied from the list.
kinase-Nluc reporter destabilization hit call (BRAF_V600E; 10 µM) with O=C1Nc2ccccc2/C1=C/c1ccccn1 [(E/Z)-GSK-3β inhibitor 1] reads inactive: 0
kinase-Nluc reporter destabilization hit call (DYRK2; 10 µM) with N#CCC1(n2cc(-c3ncnc4[nH]ccc34)cn2)CN(C2CCN(C(=O)c3ccnc(C(F)(F)F)c3F)CC2)C1 [Itacitinib adipate] reads inactive: 0

Source: the supplement of paper PMC12823440, “Inhibitors supercharge kinase turnover through native proteolytic circuits” (Nature, 2025)
